Data source: PubChem BioAssay AID1259424 (University of Nebraska Medical Center, 2018)
Assay: 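Seek colon cancer survival genes behaving like KSR1, using a six-gene signature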 (primary screen). System: human HCT116 colon cancer cells. Knock-down reagent: siRNA pool against human genes, 50 nM. Measured: 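Six signature mRNAs by branched-DNA multiplex assay, scaled to two housekeeping genes and non-targeting median, log2; matched to mean KSR1 knockdown profile by Pearson correlation and euclidean distance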. Direction: mean correlation with KSR1 profile and KSR1 correlation: higher = expression change more like KSR1 knockdown; mean distance from KSR1 profile: higher = expression change less like KSR1 knockdown.
In all, the deposit lists about 14,000 reagents; shown is an unselected part. 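Higher correlation or smaller distance means closer resemblance to KSR1 loss; control wells, including KSR1 knockdowns, recur on many plates.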 Not stated in the record: the time to read-out.

no.	gene knocked down	mean correlation with KSR1 profile	mean distance from KSR1 profile	KSR1 correlation, replicate 1	KSR1 correlation, replicate 2	KSR1 correlation, replicate 3
1	RABEPK (GeneID 10244)	0.137	2.35	-0.0662	0.0348	0.484
2	IL5RA (GeneID 3568)	-0.495	1.3	-0.516	-0.396	-0.397
3	LXN (GeneID 56925)	-0.825	2.26	-0.823	-0.595	-0.744
4	FBXO24 (GeneID 26261)	-0.474	4.18	-0.374	-0.418	-0.685
5	SH3PXD2B (GeneID 285590)	0.0426	1.79	-0.349	0.263	0.164
6	LRP10 (GeneID 26020)	0.18	2.03	0.307	-0.0249	-0.0434
7	KCNJ10 (GeneID 3766)	-0.489	2.72	-0.479	-0.516	-0.559
8	PYCR3 (GeneID 65263)	0.438	2.2	0.548	0.233	0.427
9	NBAS (GeneID 51594)	0.22	2.91	0.183	0.246	0.288
10	RIDA (GeneID 10247)	0.0268	1.54	0.0465	-0.115	0.151
11	TGFBR3 (GeneID 7049)	0.0594	2.65	-0.364	-0.823	0.211
12	REC8 (GeneID 9985)	-0.553	2.12	-0.742	-0.524	-0.0561
13	F5 (GeneID 2153)	-0.0731	2.16	0.324	-0.199	-0.341
14	ZNF208 (GeneID 7757)	-0.00913	1.88	-0.00503	-0.0185	0.0763
15	GRIN2A (GeneID 2903)	0.473	1.2	0.555	0.226	0.476
16	RRP15 (GeneID 51018)	-0.363	3.15	-0.231	-0.282	-0.388
17	APTX (GeneID 54840)	-0.353	1.23	-0.508	-0.326	-0.0188
18	MUTYH (GeneID 4595)	-0.806	2.15	-0.455	-0.561	-0.942
19	GPR82 (GeneID 27197)	0.805	1.08	0.803	0.795	0.702
20	PSPH (GeneID 5723)	-0.727	2.08	-0.608	-0.84	-0.684

Reformatted: results already given.
RRP15 (GeneID 51018)
- mean correlation with KSR1 profile: -0.363
- mean distance from KSR1 profile: 3.15
- KSR1 correlation, replicate 1: -0.231
- KSR1 correlation, replicate 2: -0.282
- KSR1 correlation, replicate 3: -0.388

APTX (GeneID 54840)
- mean correlation with KSR1 profile: -0.353
- mean distance from KSR1 profile: 1.23
- KSR1 correlation, replicate 1: -0.508
- KSR1 correlation, replicate 2: -0.326
- KSR1 correlation, replicate 3: -0.0188
